# Measurements reported in PubChem BioAssay AID1259308 (NCATS, 2017)
# Screen: 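Genes whose loss raises luciferase production in HEK293 cells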 (primary screen)
# System: human HEK293 embryonic kidney cells stably expressing firefly luciferase (HEK-CMV-Luc2-Hygro)
# Knock-down reagent: single siRNA against human genes, 0.8 pmol siRNA per well
# Timing: 72 h
# Measurement: 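Reporter luminescence and viable-cell signal on separate replicate plates, given as percent of non-targeting control and median/MAD z-scores, plus per-cell luciferase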
# Direction: total luciferase, z-score and total luciferase, % of control: higher = more reporter protein produced; luciferase per cell, z-score: higher = more reporter output per viable cell; viable cells, % of control: higher = more viable cells
# Hit rule: 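An siRNA counts as active if its total luciferase robust z-score exceeds 3; genes with two or more such siRNAs out of three were retested with fresh siRNAs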
# Meaning of the calls: active = raised luciferase; inactive = no rise
# Shown is a random part of about 59,000 reagents. About 1,510 of them (2.6%) count as active. 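Calls use total luciferase alone and ignore viability, so some active siRNAs may act by altering cell number.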 Reagents against one gene are numbered here. Reagent sequences are not shown.
"total luciferase, z-score","total luciferase, % of control","luciferase per cell, z-score","viable cells, % of control",activity call,Gene,reagent
-1.7,48,-2.55,105,inactive,HECTD3,1
2.19,125,1.27,100,inactive,HECTD3,2
-0.632,69.3,-1.28,109,inactive,HECTD3,3
-0.586,70.2,-1.04,103,inactive,DCAF12,1
0.663,95.1,0.497,93.2,inactive,DCAF12,2
0.824,98.3,0.228,103,inactive,DCAF12,3
-1.27,56.6,-0.277,68,inactive,SCGB2A2,1
3.9,159,4.75,51,active,SCGB2A2,2
1.2,106,0.674,99,inactive,SCGB2A2,3
0.358,89,-0.295,107,inactive,CCL24,1
-1.29,56.2,-1.95,105,inactive,CCL24,2
0.78,97.4,-0.328,119,inactive,CCL24,3
0.479,91.4,0.638,86.3,inactive,IFI35,1
0.139,84.6,-0.497,108,inactive,IFI35,2
-0.752,66.9,-0.298,80.9,inactive,IFI35,3
-0.189,78.1,-0.766,107,inactive,FAM217B,1
1.1,104,0.159,111,inactive,FAM217B,2
1.63,114,0.525,111,inactive,FAM217B,3
0.266,87.2,0.356,88.7,inactive,PADI2,1
-0.488,72.2,-0.568,93.7,inactive,PADI2,2
-0.63,69.4,-0.615,91.1,inactive,PADI2,3
-1.08,60.4,-0.924,86.1,inactive,EPHA7,1
0.693,95.7,0.694,89,inactive,EPHA7,2
3.2,146,2.81,77.6,active,EPHA7,3
0.000482,81.9,-0.137,94.9,inactive,CD1B,1
-1.37,54.5,-1.63,93.7,inactive,CD1B,2
0.248,86.8,-0.368,107,inactive,CD1B,3
0.25,86.9,0.491,85.3,inactive,RAB11B,1
1.29,108,1.79,75,inactive,RAB11B,2
2.14,124,1.62,90.7,inactive,RAB11B,3
-0.635,69.3,-0.443,87,inactive,DCP1B,1
-2.2,38.2,0.204,40.4,inactive,DCP1B,2
-0.127,79.4,-0.941,114,inactive,DCP1B,3
0.472,91.3,0.0784,99.9,inactive,MICB,1
-0.141,79.1,-0.209,93.4,inactive,MICB,2
0.545,92.7,2.06,60.3,inactive,MICB,3
-2.02,41.8,-3.27,111,inactive,TNFAIP3,1
-0.219,77.5,-0.369,95.5,inactive,TNFAIP3,2
-0.861,64.8,-1.18,98.8,inactive,TNFAIP3,3
-0.641,69.1,-0.337,84.4,inactive,CALCRL,1
2.49,131,1.63,95.6,inactive,CALCRL,2
-2.02,41.8,-0.96,60.1,inactive,CALCRL,3
-0.724,67.5,-0.664,89.8,inactive,OR13A1,1
-0.644,69.1,-0.278,83,inactive,OR13A1,2
-0.842,65.1,-0.184,76.4,inactive,OR13A1,3
-0.638,69.2,-0.47,87.5,inactive,MEGF9,1
-1.67,48.7,-1.02,71.1,inactive,MEGF9,2
0.501,91.9,0.0703,101,inactive,MEGF9,3
-1.61,49.8,-0.701,66.9,inactive,GINS1,1
0.971,101,1.16,83.4,inactive,GINS1,2
-0.468,72.6,0.0163,80.8,inactive,GINS1,3
0.382,89.5,0.67,83.8,inactive,ZNF585A,1
0.067,83.2,-0.348,102,inactive,ZNF585A,2
-0.926,63.5,-1.19,97.1,inactive,ZNF585A,3
0.0727,83.3,-0.573,108,inactive,NTHL1,1
2.51,132,2.01,86.8,inactive,NTHL1,2
0.411,90.1,0.929,78.8,inactive,NTHL1,3

Targets above whose gene name begins with F or f:
"total luciferase, z-score","total luciferase, % of control","luciferase per cell, z-score","viable cells, % of control",activity call,Gene,reagent
-0.189,78.1,-0.766,107,inactive,FAM217B,1
1.1,104,0.159,111,inactive,FAM217B,2
1.63,114,0.525,111,inactive,FAM217B,3
